Data source: PubChem BioAssay AID686937 (Drosophila RNAi Screening Center, 2013)

Assay: 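Genes whose loss weakens secretory pathway function in fly cells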 (primary screen)
System: Drosophila S2 cells expressing secreted horseradish peroxidase
Knock-down reagent: long dsRNA against Drosophila genes
Duration: about 5.5 days (5 days dsRNA, then 12 h reporter induction)
Challenge: reporter expression induced after 5 days of dsRNA, read 12 h later; inducer not stated
Measured: 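After 5 days of dsRNA and 12 h of reporter induction, medium peroxidase read by chemiluminescence and scored as per-plate z-score; higher values mean more reporter released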
Scale: z-score: higher = more reporter secreted into medium
The deposit covers about 23,000 reagents; this is a random part of those with a known target gene and a result. 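Reduced-secretion tags in replicate 1 do not always agree with the z-scores; no criterion for assigning the tags was given.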 Further read-outs or replicates are left out here. Not given: the amount of reagent.

| z-score, replicate 1 | z-score, replicate 2 | z-score, replicate 3 | target | DRSC id |
| --- | --- | --- | --- | --- |
| 0.18 | 0.25 | – | twz (tiwaz) | DRSC04069 |
| 0.7 | 0.63 | – | CG13319 | DRSC06356 |
| 0.27 | -0.02 | – | mRpL33 (mitochondrial ribosomal protein L33) | DRSC18319 |
| 0.41 | 0.46 | – | CG7208 | DRSC16212 |
| 0.26 | 0.59 | – | CG7252 | DRSC10789 |
| -0.78 | -0.22 | – | CG7252 | DRSC21492 |
| -0.5 | -0.71 | – | Nnf1b | DRSC22080 |
| 0.31 | 0.14 | – | Saf-B (Scaffold attachment factor B) | DRSC16167 |
| 0.14 | 0.31 | – | CG31097 | DRSC14666 |
| 0.24 | 0.3 | – | Egfrap (EGFR adaptor protein) | DRSC09963 |
| 0.03 | 0.42 | – | Egfrap (EGFR adaptor protein) | DRSC09964 |
| 0.45 | 0.34 | – | UGP (UDP-glucose pyrophosphorylase) | DRSC10411 |
| -0.16 | 0.01 | – | Cpsf160 (Cleavage and polyadenylation specificity factor 160) | DRSC05968 |
| 0.25 | 0.28 | – | CG3565 | DRSC04389 |
| 0.12 | 0.28 | – | CG4282 | DRSC06865 |
| 0.19 | 0.38 | – | Ntmt (N-terminal methyltransferase) | DRSC06624 |
| -0.27 | -0.08 | – | CG13461 | DRSC10008 |
| -0.57 | – | – | Lcp1Psi (Larval cuticle protein 1 pseudogene) | DRSC05105 |
| 0.59 | 0.09 | – | CG1304 | DRSC20494 |
| 0.28 | 0.32 | – | Cpr76Bb (Cuticular protein 76Bb) | DRSC11061 |
| 0.96 | 1.18 | – | Cpr76Bb (Cuticular protein 76Bb) | DRSC22870 |
| 0.43 | 0.38 | – | pdm3 (pou domain motif 3) | DRSC06076 |
| 0.42 | 0.33 | – | pdm3 (pou domain motif 3) | DRSC06490 |
| 0.45 | -0.03 | – | pdm3 (pou domain motif 3) | DRSC22326 |
| -0.64 | 0.28 | – | CG42540 | DRSC08327 |
| -0.38 | -0.28 | – | CG42540 | DRSC08328 |
| -2.59 | -2.44 | – | CG42540 | DRSC08593 |
| 0.21 | 0.25 | – | Cyp28c1 (Cytochrome P450 28c1) | DRSC20236 |
| 0.46 | 0.5 | – | CG17122 | DRSC10245 |
| 0.29 | 0.32 | – | CG14244 | DRSC14739 |
| 0.31 | 0.32 | – | CG7536 | DRSC20050 |
| 0.29 | 0.57 | – | Hat1 (Histone acetyltransferase 1) | DRSC12298 |
| 0.76 | 0.95 | – | IntS2 (Integrator 2) | DRSC20094 |
| -0.1 | -0.3 | – | prom (prominin) | DRSC04684 |
| 1.2 | 1.04 | – | prom (prominin) | DRSC21463 |
| 0.45 | -0.02 | – | prom (prominin) | DRSC22088 |
| -0.16 | 0.11 | – | Grx1t (Glutaredoxin 1, testis-specific) | DRSC04530 |
| 0.42 | 0.46 | – | loh (lonely heart) | DRSC01122 |
| -0.4 | 0.14 | – | loh (lonely heart) | DRSC02943 |
| -0.12 | -0.17 | – | betaNACtes6 (Nascent-associated complex beta-subunit-like, testis 6) | DRSC22925 |
| 0.13 | -0.27 | – | TwdlW (TweedleW) | DRSC15540 |
| -3.11 | -3.02 | – | raptor | DRSC18359 |
| -2.65 | -4.28 | – | RpS7 (Ribosomal protein S7) | DRSC15394 |
| 0.35 | 0.69 | – | pigs (pickled eggs) | DRSC17472 |
| 0.38 | 0.18 | – | pigs (pickled eggs) | DRSC18334 |
| 0.23 | 0.4 | – | pigs (pickled eggs) | DRSC18335 |
| 0.3 | 0.33 | – | PyK (Pyruvate kinase) | DRSC16806 |
| 0.3 | 0.19 | – | gudu | DRSC02820 |
| 0.42 | 0.31 | – | Cyp313a5 (Cytochrome P450 313a5) | DRSC16628 |
| 0 | -0.01 | – | lncRNA:CR32690 (long non-coding RNA:CR32690) | DRSC22219 |
| -0.84 | -0.28 | – | Lamtor3 (Late endosomal/lysosomal adaptor, MAPK and MTOR activator 3) | DRSC02815 |
| 0.06 | 0.25 | – | CG31789 | DRSC01645 |
| 0.49 | 0.51 | – | CG3106 | DRSC18279 |
| 0.18 | 0.38 | – | Men (Malic enzyme) | DRSC12924 |
| 0.32 | 0.04 | 0.31 | Men (Malic enzyme) | DRSC16738 |
| 1.65 | 0.77 | – | Men (Malic enzyme) | DRSC22694 |
| 0.44 | 0.38 | – | drl (derailed) | DRSC03523 |
| 0.29 | 0.25 | – | CG18324 | DRSC06721 |
| 0.22 | 0.46 | – | Hus1-like | DRSC12353 |
| 0.08 | 0.3 | – | Ncc69 (sodium chloride cotransporter 69) | DRSC10412 |
| 0.27 | -0.82 | – | Ncc69 (sodium chloride cotransporter 69) | DRSC10413 |
| -0.37 | -0.36 | – | Atu (Another transcription unit) | DRSC12123 |
| 0.6 | 0.42 | – | CG4393 | DRSC15573 |
| 0.4 | 0.43 | – | Acat2 (Acetyl-CoA acetyltransferase 2) | DRSC08630 |
| 0.4 | 0.46 | – | beta3GalTII (beta-1,3-Galactosyltransferase II) | DRSC07253 |
| 0.12 | 0.28 | – | CG11656 | DRSC14338 |
| -0.32 | -0.3 | – | eEF5 (eukaryotic translation elongation factor 5) | DRSC04681 |
| 0.41 | 0.39 | – | ppk17 (pickpocket 17) | DRSC02252 |
| 0.32 | 0.42 | – | CdGAPr (Cd GTPase activating protein-related) | DRSC03289 |
| 0.39 | 0.26 | – | CG9498 | DRSC03235 |
| 0.29 | 0.33 | – | Pef (Peflin) | DRSC06695 |
| 0.33 | -0.15 | – | CG15576 | DRSC18064 |
| 0.13 | 0.44 | – | CG4287 | DRSC15559 |
| 0.22 | 0.37 | – | CG31233 | DRSC15888 |
| 0.14 | 0.12 | – | Lcch3 (Ligand-gated chloride channel homolog 3) | DRSC22175 |
| 0.33 | 0.28 | – | CG11384 | DRSC18628 |
| 0.42 | 0.35 | – | Mapmodulin | DRSC06956 |
| -0.1 | 0.08 | – | Arp2 (Actin-related protein 2) | DRSC19332 |
| 0.23 | 0.36 | – | Pisd (Phosphatidylserine decarboxylase) | DRSC15935 |
| 0.22 | 0.34 | – | CG7567 | DRSC16258 |
| 0.15 | -0.35 | – | Myo10A (Myosin 10A) | DRSC19758 |
| 0.39 | 0.29 | – | Myo10A (Myosin 10A) | DRSC19834 |
| 0.21 | 0.23 | – | Myo10A (Myosin 10A) | DRSC19837 |

Targets listed so far whose gene name begins with E or e:
| z-score, replicate 1 | z-score, replicate 2 | z-score, replicate 3 | target | DRSC id |
| --- | --- | --- | --- | --- |
| 0.24 | 0.3 | – | Egfrap (EGFR adaptor protein) | DRSC09963 |
| 0.03 | 0.42 | – | Egfrap (EGFR adaptor protein) | DRSC09964 |
| -0.32 | -0.3 | – | eEF5 (eukaryotic translation elongation factor 5) | DRSC04681 |
